Test results as given in paper PMC11749100, “Blockade of Arf1-mediated lipid metabolism in cancers promotes tumor infiltration of cytotoxic T cells via the LPE-PPARγ-NF-κB-CCL5 pathway”.
These are yes or no findings as the source states them, for the method shown. Binding seen in cells or lysates may run through a third protein. Some entries that bind do so weakly or less than the wild type.

By UniProt entry, the sequences of proteins in these tests, tags left out.
UniProt Q04207: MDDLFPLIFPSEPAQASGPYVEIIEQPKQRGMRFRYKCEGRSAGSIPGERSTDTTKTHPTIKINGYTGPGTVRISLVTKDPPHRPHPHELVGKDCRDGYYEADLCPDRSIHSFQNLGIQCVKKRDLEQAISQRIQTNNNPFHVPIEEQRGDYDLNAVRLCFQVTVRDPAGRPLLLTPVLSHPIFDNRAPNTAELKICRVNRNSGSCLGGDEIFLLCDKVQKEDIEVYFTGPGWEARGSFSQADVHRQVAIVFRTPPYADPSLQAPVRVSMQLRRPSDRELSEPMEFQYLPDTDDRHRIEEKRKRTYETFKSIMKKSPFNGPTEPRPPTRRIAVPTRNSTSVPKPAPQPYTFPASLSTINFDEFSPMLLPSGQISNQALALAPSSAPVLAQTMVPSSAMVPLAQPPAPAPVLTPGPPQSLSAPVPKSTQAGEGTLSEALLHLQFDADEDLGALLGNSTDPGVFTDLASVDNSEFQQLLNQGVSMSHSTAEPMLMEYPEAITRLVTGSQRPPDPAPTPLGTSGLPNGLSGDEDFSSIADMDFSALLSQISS
UniProt P37238: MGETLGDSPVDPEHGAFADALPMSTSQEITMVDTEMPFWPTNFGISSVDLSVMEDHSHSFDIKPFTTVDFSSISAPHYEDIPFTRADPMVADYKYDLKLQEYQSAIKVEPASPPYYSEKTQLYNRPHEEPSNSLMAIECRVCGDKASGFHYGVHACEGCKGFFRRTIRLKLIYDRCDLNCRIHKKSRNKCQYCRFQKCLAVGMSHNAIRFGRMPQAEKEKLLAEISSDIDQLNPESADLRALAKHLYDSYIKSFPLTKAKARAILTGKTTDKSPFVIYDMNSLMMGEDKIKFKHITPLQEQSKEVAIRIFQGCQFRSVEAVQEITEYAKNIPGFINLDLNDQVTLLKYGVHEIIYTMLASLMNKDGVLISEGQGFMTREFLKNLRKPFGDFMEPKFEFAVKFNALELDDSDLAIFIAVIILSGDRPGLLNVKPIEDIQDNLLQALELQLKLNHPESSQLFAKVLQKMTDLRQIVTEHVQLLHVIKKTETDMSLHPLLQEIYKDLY

Molecular target: NF-κB p65 protein (mouse (endogenous in CT26)) (UniProt Q04207)
Experiment: co-IP; endogenous proteins in CT26 cell lysate (25 mmol/L Tris-HCl pH 7.4, 150 mmol/L NaCl, 1% NP-40, 1 mmol/L EDTA, 5% glycerol); anti-p65 or anti-PPARγ antibody overnight at 4°C, Protein A+G Agarose, immunoblot; cells untreated or treated with LPE, DMSO, DU101/DU102 or Arf1 knockdown

binding: binds
Substance: peroxisome proliferator-activated receptor-γ (PPARγ) (from UniProt P37238 1-505)
